According to publication PMC10352271:
These are yes or no findings as the source states them, for the method shown. For some assays here: Binding seen in cells or lysates may run through a third protein. Some entries that bind do so weakly or less than the wild type.

Legend:
[1] = molecular target: eukaryotic translation initiation factor 4B (EIF4B) (human (endogenous in LN229)) (UniProt P23588); assay: co-IP; immunoprecipitation from LN229 cells with an anti-EIF4B antibody; hnRNPK detected by western blotting
[2] = molecular target: EIF4B recombinant protein (UniProt P23588); assay: far-Western, overlay or dot blot; EIF4B recombinant protein (10 ug) on 10% SDS-PAGE, transferred to PVDF, denatured and renatured in AC buffer (100 mM NaCl, 20 mM Tris-HCl pH 7.6, 0.5 mM EDTA, 10% glycerol, 0.1% Tween-20, 2% non-fat milk, 1 mM DTT); membrane incubated with 1 ug/ml recombinant hnRNPK at 4 C overnight; detected with anti-hnRNPK antibody; BSA loaded as negative control; both purified

| binding [1] | binding [2] | Substance |
| --- | --- | --- |
| binds |  | hnRNPK (from UniProt P61978 1-463) |
|  | binds | recombinant hnRNPK protein (from UniProt P61978 1-463) |
